From patent US20170002074A1
No constants are given. Whether binding was seen depends on the method and setting. Some entries that bind do so weakly or less than the wild type. One block for each binder: values may come before it.

The chains behind the UniProt entries cited, without tags or fusion partners. Where a name states a change or a piece, a line headed by the entry shows the natural chain unless it says otherwise.
UniProt P20138: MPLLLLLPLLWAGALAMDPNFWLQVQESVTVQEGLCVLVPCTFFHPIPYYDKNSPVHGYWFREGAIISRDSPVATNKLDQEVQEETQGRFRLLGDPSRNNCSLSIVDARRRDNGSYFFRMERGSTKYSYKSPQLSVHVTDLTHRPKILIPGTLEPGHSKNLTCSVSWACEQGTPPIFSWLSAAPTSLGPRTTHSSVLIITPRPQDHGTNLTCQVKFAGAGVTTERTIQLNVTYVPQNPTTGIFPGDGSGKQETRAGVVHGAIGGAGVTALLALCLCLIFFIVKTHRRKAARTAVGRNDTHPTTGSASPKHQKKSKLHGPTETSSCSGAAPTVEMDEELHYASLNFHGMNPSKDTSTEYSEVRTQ

Key:
[1] = target: Biotinylated CD33 (human, captured on Streptavidin biosensors) (human) (UniProt P20138); experiment: Octet RED384, biotinylated CD33 saturated with My9.6, then 27C6 at 5 µg/ml for 300 s
[2] = target: Biotinylated CD33 (human, captured on Streptavidin biosensors) (human) (UniProt P20138); experiment: Octet RED384, biotinylated CD33 saturated with My9.6, then 33H4 at 5 µg/ml for 300 s
[3] = target: Biotinylated CD33 (human, captured on Streptavidin biosensors) (human) (UniProt P20138); experiment: Octet RED384, biotinylated CD33 saturated with My9.6, then 23E4 at 5 µg/ml for 300 s

- binding [1]: binds
B1: 27C6 (antibody, V domains shown)
VH: EVQLQQSGPELVKPGASVKVSCKASGYAFTSYNMYWVKQSHGKSLEWIGYIDPYNGGTRHNQKFKDKATLTVDKSSSTAYMHLNSLTSEDSAVYYCASQNYEYFDYWGQGTTLTVSS
VL: DIVLTQSPKFMSTSVGDRVSITCKASQDVGDAVAWYQQKPGQSPKLLFYWTSTRHTGVPDRFTGSGSGTEFTLTIRNVQSEDLADYFCQQYRSTPLTFGSGTKVEIK

- binding [2]: binds
B2: 33H4 (antibody, V domains shown)
VH: EVQLQQSGAELVKPGASVKMSCKAFGYTFTTFPIEWMKQSHGKSLEWIGNFHPYNDQTKYNEEFKGRAKLTIDRSSSTVYLELGRLTSDDSAVYYCARGYYYAFDFWGQGTTLTVSS
VL: DIQMTQSPASLTVSLGQRATISCRASESVDSYGNSYLHWYQQKPGQPPQLLIYLASNLESGVPARFSGSGSRTDFTLTIDPVEADDAATYYCQQNNEDPWTFGGGTKVEIK

- binding [3]: binds
B3: 23E4 (antibody, V domains shown)
VH: EVQLQQSGAELVRPGASVKLSCKASGYTFTNYWMNWVKQRPGQGLEWIGMIDPSDNETHYSQMFKDKATLTVDKSSSTAYMQLISLTSEDSAVYYCAGYYGNFGWFVYWGQGTLVTVSA
VL: DIFMTQTPLSLPVSLGDPASISCRSSQTIVHSNGNTYLEWYLQKPGQSPKLLIYKVSNRFSGVPDRFSGSGSGTDFTLKISRVEAEDLGVYYCFQGSHVPPTFGGGTKVEIK
